# Not every detail of the peptide structures is certain; ends, links or a residue may be inferred. Square brackets hold non-standard residues; d marks the D form. Peptide text beside a SMILES is read from it.
# Test system: cortical nerve cells
# Experiment: Mechanism of action: receptor-mediated endocytosis, p62/LC3 western blot with Baf-A1
# Format: cell-based, ICR mouse
# Description: In the pre-preparation process, 10-12 days after cell culture, the culture medium of the cerebral cortex nerve cells was changed to a minimum essential medium (MEM, Gibco, USA) without adding serum, and then was treated with N,N,N′,N′-tetrakis(2-pyridylmethyl)ethylene-diamine (TPEN, 2 μM, Sigma, USA), which is a zinc chelator, 50 μM chloroquine (CQ), 100 nM bafilomycin A-1 (Baf-A1), 500 μM methyl-beta-cyclodextrin (MβCD), and 2 μM chloropromazine (CP). Here, the MβCD is a caveolin-mediated endocytosis inhibitor, and CP is a clathrin-mediated endocytosis inhibitor. In addition, in the cell line experiments, the medium was changed to MEM according to the purpose of the experiments and was then treated with 40 μM chloroquine (CQ) and 100 nM bafilomycin A-1 (Baf-A1). During the pre-preparation process, the medium was treated with alloferon D-form peptides (0.2, 2, or 20 μM), free zinc (25 μM), TPEN (1 μM), and the like separately or together according to the purpose of each experiment.
# Since the protein cannot pass through the cell membrane, the present inventors thought that the alloferon D-form peptides would be introduced through an endocytosis process. Thus, the present inventors investigated whether the alloferon D-form peptides act through a receptor-mediated endocytosis process. Specifically, in order to examine whether the LRP1 receptor is involved, after 1 hour of pretreatment of Baf-A1 and antibodies that inhibit LRP1 receptor binding, the treatment of the alloferon D-form peptides were performed for 12 hours. […] In addition, it was observed that the autophagic flux blocked by Baf-A1 was activated by the alloferon D-form peptides, and the effect of the alloferon D-form peptides was not changed when MβCD, which inhibits the caveolin-mediated endocytosis process, or CP, which is the clathrin-mediated endocytosis inhibitor, was administered alone, but the activation effect of the alloferon D-form peptides was reduced and the accumulation of p62 proteins was increased when the MβCD and CP were administered concurrently (FIG. 9B).
smiles,measurement,setting,value
CC(C)[C@@H](NC(=O)CNC(=O)[C@H](N)Cc1c[nH]cn1)C(=O)N[C@H](CO)C(=O)NCC(=O)N[C@H](Cc1c[nH]cn1)C(=O)NCC(=O)N[C@H](CCC(N)=O)C(=O)N[C@H](Cc1c[nH]cn1)C(=O)NCC(=O)N[C@@H](C(=O)N[C@H](Cc1c[nH]cn1)C(=O)NCC(=O)O)C(C)C [alloferon D-form peptides] (H-[dH]G[dV][dS]G[dH]G[dQ][dH]G[dV][dH]G-OH; N-terminus and C-terminus assumed),autophagic flux blocked by Baf-A1,"100 nM bafilomycin A1 + 20 μM peptide, 12 hours",activated
same,activation effect of the alloferon D-form peptides,"MβCD and CP administered concurrently, with Baf-A1 (FIG. 9B)",reduced
same,accumulation of p62 proteins,"MβCD and CP administered concurrently, with Baf-A1 + peptide (FIG. 9B)",increased

# Source: patent publication US20230365626A1, “Alloferon Peptide and Method Using the Same” (Industry Academy Cooperation Foundation of Sejong University, priority 2020, published 2023)
